This data set can be described thus: general procedure: solution-phase peptide synthesis; HATU/DIPEA. Conditions: coupling step.

Substance “ethyl(S,E)-4-((S)-2-((R)-3-(3-((S)-2-((S)-2-((((9H-fluoren-9-yl)methoxy)carbonyl)amino)-3-methylbutanamido)propanamido)phenyl)-3-methyl-2-(methylamino)butanamido)-N,3,3-trimethylbutanamido)-2,5-dimethylhex-2-enoate” displayed a step yield of 70%.
